These are yes or no findings as the source states them, for the method shown. In cells and extracts the contact can be indirect. Binding calls can cover weak binding; strength is not graded here. For some of these results: Where a sequence is shown, tags or fusion partners need not be part of it.
Columns and labels:
[1] = biological target: GFP-tagged TREK-1 (human); assay: co-IP
[2] = biological target: POPDC1Δ236 with a half of Venus for BiFC (transmembrane domain of POPDC1) (mouse); assay: split reporter
[3] = biological target: POPDC1Δ236-Myc (transmembrane domain of POPDC1, Myc-tagged) (mouse); assay: co-IP

Row | binding [1] | Binder | also measured
1 | binds | endogenous POPDC1 of HEK293 cells (protein, UniProt Q8NE79 1-360) MNYTESSPLRESTAIGFTPELESIIPVPSNKTTCENWREIHHLVFHVANICFAVGLVIPTTLHLHMIFLRGMLTLGCTLYIVWATLYRCALDIMIWNSVFLGVNILHLSYLLYKKRPVKIEKELSGMYRRLFEPLRVPPDLFRRLTGQFCMIQTLKKGQTYAAEDKTSVDDRLSILLKGKMKVSYRGHFLHNIYPCAFIDSPEFRSTQMHKGEKFQVTIIADDNCRFLCWSRERLTYFLESEPFLYEIFRYLIGKDITNKLYSLNDPTLNDKKAKKLEHQLSLCTQISMLEMRNSIASSSDSDDGLHQFLRGTSSMSSLHVSSPHQRASAKMKPIEEGAEDDDDVFEPASPNTLKVHQLP | 
2 | binds | POPDC1-Myc (Popeye domain-containing protein 1, Myc-tagged) (protein, UniProt Q9ES83 1-358) MNSTESIPLAQSTVAGFTSELESLTPVPSNETTCENWREIHHLVFHVANVCFAVGLLIPTTLHLHMILLRVMLSLGCTLYVVWATLYRCALDVMIWNSVFLGINILHLSYLLYKKRPVKIEKELGGVYHRLFEPLRVPPDLFRRLTGQFCMIQTLKRGQVYATEDKTSVDDRLSILLKGRMKVSYRGHFLHNIYPCAFIDSPEFRSTQMHKGEKFQVTIVADDNCRFLCWSRERLTYFLESEPFLYEIFRYLIGKDITNKLYSLNDPTLNDKKVKKLEPQMSLCTQISMLEMRNSITSSSDGEDGLHHFLRGSSSTASLPMSSPQQRASAKMKPIEEGVEDDDEVFVSPDALKVHQLP | 
3 |  | AC9-VN / AC9-VC (AC9 with a half of Venus for BiFC) (enzyme, UniProt O60503 1-1353) MASPPHQQLLHHHSTEVSCDSSGDSNSVRVKINPKQLSSNSHPKHCKYSISSSCSSSGDSGGVPRRVGGGGRLRRQKKLPQLFERASSRWWDPKFDSVNLEEACLERCFPQTQRRFRYALFYIGFACLLWSIYFAVHMRSRLIVMVAPALCFLLVCVGFFLFTFTKLYARHYAWTSLALTLLVFALTLAAQFQVLTPVSGRGDSSNLTATARPTDTCLSQVGSFSMCIEVLFLLYTVMHLPLYLSLCLGVAYSVLFETFGYHFRDEACFPSPGAGALHWELLSRGLLHGCIHAIGVHLFVMSQVRSRSTFLKVGQSIMHGKDLEVEKALKERMIHSVMPRIIADDLMKQGDEESENSVKRHATSSPKNRKKKSSIQKAPIAFRPFKMQQIEEVSILFADIVGFTKMSANKSAHALVGLLNDLFGRFDRLCEETKCEKISTLGDCYYCVAGCPEPRADHAYCCIEMGLGMIKAIEQFCQEKKEMVNMRVGVHTGTVLCGILGMRRFKFDVWSNDVNLANLMEQLGVAGKVHISEATAKYLDDRYEMEDGKVIERLGQSVVADQLKGLKTYLISGQRAKESRCSCAEALLSGFEVIDGSQVSSGPRGQGTASSGNVSDLAQTVKTFDNLKTCPSCGITFAPKSEAGAEGGAPQNGCQDEHKNSTKASGGPNPKTQNGLLSPPQEEKLTNSQTSLCEILQEKGRWAGVSLDQSALLPLRFKNIREKTDAHFVDVIKEDSLMKDYFFKPPINQFSLNFLDQELERSYRTSYQEEVIKNSPVKTFASPTFSSLLDVFLSTTVFLTLSTTCFLKYEAATVPPPPAALAVFSAALLLEVLSLAVSIRMVFFLEDVMACTKRLLEWIAGWLPRHCIGAILVSLPALAVYSHVTSEYETNIHFPVFTGSAALIAVVHYCNFCQLSSWMRSSLATVVGAGPLLLLYVSLCPDSSVLTSPLDAVQNFSSERNPCNSSVPRDLRRPASLIGQEVVLVFFLLLLLVWFLNREFEVSYRLHYHGDVEADLHRTKIQSMRDQADWLLRNIIPYHVAEQLKVSQTYSKNHDSGGVIFASIVNFSEFYEENYEGGKECYRVLNELIGDFDELLSKPDYSSIEKIKTIGATYMAASGLNTAQAQDGSHPQEHLQILFEFAKEMMRVVDDFNNNMLWFNFKLRVGFNHGPLTAGVIGTTKLLYDIWGDTVNIASRMDTTGVECRIQVSEESYRVLSKMGYDFDYRGTVNVKGKGQMKTYLYPKCTDHRVIPQHQLSISPDIRVQVDGSIGRSPTDEIANLVPSVQYVDKTSLGSDSSTQAKDAHLSPKRPWKEPVKAEERGRFGKAIEKDDCDETGIEEANELTKLNVSKSV | binding [2]: binds
4 |  | Flag-tagged AC9 (adenylyl cyclase type 9) (enzyme, UniProt O60503 1-1353) MASPPHQQLLHHHSTEVSCDSSGDSNSVRVKINPKQLSSNSHPKHCKYSISSSCSSSGDSGGVPRRVGGGGRLRRQKKLPQLFERASSRWWDPKFDSVNLEEACLERCFPQTQRRFRYALFYIGFACLLWSIYFAVHMRSRLIVMVAPALCFLLVCVGFFLFTFTKLYARHYAWTSLALTLLVFALTLAAQFQVLTPVSGRGDSSNLTATARPTDTCLSQVGSFSMCIEVLFLLYTVMHLPLYLSLCLGVAYSVLFETFGYHFRDEACFPSPGAGALHWELLSRGLLHGCIHAIGVHLFVMSQVRSRSTFLKVGQSIMHGKDLEVEKALKERMIHSVMPRIIADDLMKQGDEESENSVKRHATSSPKNRKKKSSIQKAPIAFRPFKMQQIEEVSILFADIVGFTKMSANKSAHALVGLLNDLFGRFDRLCEETKCEKISTLGDCYYCVAGCPEPRADHAYCCIEMGLGMIKAIEQFCQEKKEMVNMRVGVHTGTVLCGILGMRRFKFDVWSNDVNLANLMEQLGVAGKVHISEATAKYLDDRYEMEDGKVIERLGQSVVADQLKGLKTYLISGQRAKESRCSCAEALLSGFEVIDGSQVSSGPRGQGTASSGNVSDLAQTVKTFDNLKTCPSCGITFAPKSEAGAEGGAPQNGCQDEHKNSTKASGGPNPKTQNGLLSPPQEEKLTNSQTSLCEILQEKGRWAGVSLDQSALLPLRFKNIREKTDAHFVDVIKEDSLMKDYFFKPPINQFSLNFLDQELERSYRTSYQEEVIKNSPVKTFASPTFSSLLDVFLSTTVFLTLSTTCFLKYEAATVPPPPAALAVFSAALLLEVLSLAVSIRMVFFLEDVMACTKRLLEWIAGWLPRHCIGAILVSLPALAVYSHVTSEYETNIHFPVFTGSAALIAVVHYCNFCQLSSWMRSSLATVVGAGPLLLLYVSLCPDSSVLTSPLDAVQNFSSERNPCNSSVPRDLRRPASLIGQEVVLVFFLLLLLVWFLNREFEVSYRLHYHGDVEADLHRTKIQSMRDQADWLLRNIIPYHVAEQLKVSQTYSKNHDSGGVIFASIVNFSEFYEENYEGGKECYRVLNELIGDFDELLSKPDYSSIEKIKTIGATYMAASGLNTAQAQDGSHPQEHLQILFEFAKEMMRVVDDFNNNMLWFNFKLRVGFNHGPLTAGVIGTTKLLYDIWGDTVNIASRMDTTGVECRIQVSEESYRVLSKMGYDFDYRGTVNVKGKGQMKTYLYPKCTDHRVIPQHQLSISPDIRVQVDGSIGRSPTDEIANLVPSVQYVDKTSLGSDSSTQAKDAHLSPKRPWKEPVKAEERGRFGKAIEKDDCDETGIEEANELTKLNVSKSV | binding [3]: binds

From article doi:10.1101/2021.12.21.473719
